# Measured values: patent US20120082676A1 (RESEARCH FOUNDATION OF STATE UNIVERSITY OF NEW YORK, published 2012)
# Amino acid sequences for entries named in this document (tags omitted). Residues count along the entry.
# UniProt Q07021, residues 74-282: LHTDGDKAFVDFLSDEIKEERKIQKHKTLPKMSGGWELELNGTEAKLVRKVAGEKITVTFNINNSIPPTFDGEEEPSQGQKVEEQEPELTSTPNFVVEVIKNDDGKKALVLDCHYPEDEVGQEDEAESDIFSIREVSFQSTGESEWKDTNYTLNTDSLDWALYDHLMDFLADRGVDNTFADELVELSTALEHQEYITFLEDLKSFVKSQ
# Results are given in words; binding and its absence hold for the method and conditions named. Some entries that bind do so weakly or less than the wild type.
# Target: T1, HKH20 (HK peptide, residues 479-498)
# T1 sequence (peptide): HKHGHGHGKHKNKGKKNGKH
# Assay: ELISA, wells coated with HK peptide, biotinylated gC1q-R in solution
substance,measurement,value
"gC1q-R (receptor for the globular heads of C1q), highly purified recombinant, full-length (from UniProt Q07021 74-282)",binding,binds
